Part of at least one peptide drawing is inferred or uncertain, most often the ends. Where a SMILES comes first, the peptide text is derived from it.
Tested on: T2-B7 cells
Assay: H-Y epitope reconstitution, 51Cr release assay with HLA-B7-restricted H-Y specific CTL clone 5W4
Format: cell-based, human
Excerpt: Reconstitution of the H-Y epitope with HPLC fractionated peptides extracted from HLA-B7 molecules. (A) HLA-B7 molecules were immunoaffinity purified from […] H-Y positive JY cells. Peptides were eluted from B7 molecules with 10% acetic acid, pH 2.2, filtered through a 10 kD cut-off filter and fractionated on a C18 reverse phase column. Buffer A was 0.1% heptafluorobutyric acid (HFBA); buffer B was 0.1% HFBA in acetonitrile. The gradient consisted of 100% buffer A (0–20 mm), 0 to 12% buffer B (20 to 25 mm), and 12 to 50% buffer B (25 to 80 mm) at a flow rate of 200 μl/min. 60 fractions of 200 μl each were collected from 20 to 80 mm. […]
H-Y epitope reconstitution with synthetic peptides. […] Purity was established on an analytical RP column and the quantity of each peptide was confirmed by comparing the area of the peak with that of a standard peptide. […]
To isolate endogenously processed H-Y peptides, HLA-B7 molecules were purified by affinity chromatography from the H-Y positive, B lymphoblastoid cell line, JY (29). […] Although a single active peak of reconstituting activity was also observed from this separation (FIG. 1B, fraction 14, 15 and 16), it still contained more than 100 distinct peptide species, as assessed by electrospray ionization tandem mass spectrometry. […]

## CC(C)C[C@H](NC(=O)[C@H](CCC(=O)O)NC(=O)[C@H](C)NC(=O)[C@H](CCC(N)=O)NC(=O)[C@H](C)NC(=O)[C@H](CCCCN)NC(=O)[C@H](CC(=O)O)NC(=O)[C@@H](NC(=O)[C@H](C)NC(=O)[C@@H]1CCCN1C(=O)[C@@H](N)CO)C(C)C)C(=O)O [SMCX peptide, reference compound] (H-SPAVDKAQAEL-OH)
  higher peptide concentration needed for comparable levels of killing (vs SMCY peptide): 10,000 fold
